According to the supplement of paper PMC10849652:
Some of the results follow.

Sequences of proteins named here, by UniProt entry; tags and fusion partners are left off. A change or cut given only in a name is not applied to a line headed by its entry.
UniProt Q9Y287, whole entry, looked up: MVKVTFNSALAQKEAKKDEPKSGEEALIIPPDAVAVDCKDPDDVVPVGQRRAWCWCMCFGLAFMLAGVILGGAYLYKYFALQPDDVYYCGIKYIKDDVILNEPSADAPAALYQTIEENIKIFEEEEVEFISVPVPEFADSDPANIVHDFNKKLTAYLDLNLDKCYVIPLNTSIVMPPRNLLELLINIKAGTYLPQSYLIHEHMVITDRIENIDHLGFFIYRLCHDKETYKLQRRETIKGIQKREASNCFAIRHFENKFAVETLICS
UniProt Q14643, whole entry, looked up: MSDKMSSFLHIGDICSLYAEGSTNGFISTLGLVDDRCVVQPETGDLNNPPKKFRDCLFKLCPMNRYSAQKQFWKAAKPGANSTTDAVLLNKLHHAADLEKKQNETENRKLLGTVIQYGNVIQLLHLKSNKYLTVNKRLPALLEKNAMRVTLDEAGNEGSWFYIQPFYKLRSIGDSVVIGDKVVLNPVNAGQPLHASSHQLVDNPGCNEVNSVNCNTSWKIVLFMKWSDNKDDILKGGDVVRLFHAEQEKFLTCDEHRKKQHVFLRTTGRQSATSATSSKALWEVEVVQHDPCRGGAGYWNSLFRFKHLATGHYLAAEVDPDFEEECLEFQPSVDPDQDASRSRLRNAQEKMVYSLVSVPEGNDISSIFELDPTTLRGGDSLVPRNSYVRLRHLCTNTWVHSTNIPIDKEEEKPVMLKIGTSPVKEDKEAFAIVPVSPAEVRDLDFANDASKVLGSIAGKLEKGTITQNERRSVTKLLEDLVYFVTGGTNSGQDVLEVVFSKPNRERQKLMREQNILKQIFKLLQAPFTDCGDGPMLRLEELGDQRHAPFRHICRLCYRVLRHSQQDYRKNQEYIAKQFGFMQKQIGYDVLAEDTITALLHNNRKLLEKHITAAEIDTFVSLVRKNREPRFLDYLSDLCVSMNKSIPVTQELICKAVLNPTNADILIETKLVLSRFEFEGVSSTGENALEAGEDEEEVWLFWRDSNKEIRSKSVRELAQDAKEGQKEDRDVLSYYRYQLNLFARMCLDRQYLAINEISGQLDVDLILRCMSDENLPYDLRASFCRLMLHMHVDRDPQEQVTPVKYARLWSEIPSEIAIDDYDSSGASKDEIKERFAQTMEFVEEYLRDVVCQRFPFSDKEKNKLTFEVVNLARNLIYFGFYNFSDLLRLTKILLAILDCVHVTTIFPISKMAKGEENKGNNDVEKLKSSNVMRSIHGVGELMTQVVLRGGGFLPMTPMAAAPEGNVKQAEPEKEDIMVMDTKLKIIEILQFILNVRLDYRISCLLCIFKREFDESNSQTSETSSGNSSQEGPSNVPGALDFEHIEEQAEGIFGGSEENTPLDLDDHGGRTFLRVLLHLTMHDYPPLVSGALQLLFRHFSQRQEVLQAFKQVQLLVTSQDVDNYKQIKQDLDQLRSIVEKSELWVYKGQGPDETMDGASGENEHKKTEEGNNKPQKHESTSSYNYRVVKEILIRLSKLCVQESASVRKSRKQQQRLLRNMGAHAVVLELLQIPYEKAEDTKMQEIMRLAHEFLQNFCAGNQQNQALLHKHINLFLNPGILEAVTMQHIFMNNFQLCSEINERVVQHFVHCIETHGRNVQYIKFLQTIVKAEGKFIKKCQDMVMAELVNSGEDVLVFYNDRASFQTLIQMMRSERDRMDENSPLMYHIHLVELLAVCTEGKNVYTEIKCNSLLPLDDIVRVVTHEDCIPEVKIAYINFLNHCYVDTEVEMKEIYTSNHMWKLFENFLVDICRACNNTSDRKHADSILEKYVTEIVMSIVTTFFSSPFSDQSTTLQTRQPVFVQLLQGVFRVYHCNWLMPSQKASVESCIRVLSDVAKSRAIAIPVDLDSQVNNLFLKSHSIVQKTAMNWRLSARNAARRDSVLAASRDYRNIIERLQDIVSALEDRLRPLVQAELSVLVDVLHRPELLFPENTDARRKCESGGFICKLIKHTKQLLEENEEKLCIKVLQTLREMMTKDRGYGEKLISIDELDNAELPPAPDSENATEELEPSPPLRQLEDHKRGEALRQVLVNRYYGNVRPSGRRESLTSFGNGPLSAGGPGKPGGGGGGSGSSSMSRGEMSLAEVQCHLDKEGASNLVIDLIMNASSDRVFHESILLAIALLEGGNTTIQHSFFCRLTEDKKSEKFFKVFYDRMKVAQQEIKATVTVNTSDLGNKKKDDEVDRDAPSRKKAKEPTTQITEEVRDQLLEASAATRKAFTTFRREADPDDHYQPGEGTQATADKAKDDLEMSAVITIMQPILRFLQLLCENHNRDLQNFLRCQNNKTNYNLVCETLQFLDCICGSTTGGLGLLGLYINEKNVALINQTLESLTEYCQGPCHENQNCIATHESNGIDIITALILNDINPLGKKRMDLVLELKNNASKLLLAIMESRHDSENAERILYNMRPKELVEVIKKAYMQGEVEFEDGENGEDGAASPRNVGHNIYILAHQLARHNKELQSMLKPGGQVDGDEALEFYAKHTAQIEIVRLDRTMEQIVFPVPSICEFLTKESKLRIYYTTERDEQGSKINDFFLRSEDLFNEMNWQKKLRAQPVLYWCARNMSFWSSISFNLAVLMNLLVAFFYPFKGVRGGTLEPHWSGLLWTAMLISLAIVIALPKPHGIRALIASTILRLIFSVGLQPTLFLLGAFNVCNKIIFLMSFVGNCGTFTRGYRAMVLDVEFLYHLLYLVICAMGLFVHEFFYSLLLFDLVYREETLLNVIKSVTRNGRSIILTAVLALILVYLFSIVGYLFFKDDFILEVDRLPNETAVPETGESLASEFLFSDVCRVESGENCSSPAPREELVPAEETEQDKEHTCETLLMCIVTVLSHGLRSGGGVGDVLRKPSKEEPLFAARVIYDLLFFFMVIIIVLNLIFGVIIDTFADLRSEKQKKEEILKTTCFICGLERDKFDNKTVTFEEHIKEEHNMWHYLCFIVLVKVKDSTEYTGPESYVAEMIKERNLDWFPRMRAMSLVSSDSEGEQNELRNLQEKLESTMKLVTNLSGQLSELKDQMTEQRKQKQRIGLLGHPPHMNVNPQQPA
UniProt Q96G21: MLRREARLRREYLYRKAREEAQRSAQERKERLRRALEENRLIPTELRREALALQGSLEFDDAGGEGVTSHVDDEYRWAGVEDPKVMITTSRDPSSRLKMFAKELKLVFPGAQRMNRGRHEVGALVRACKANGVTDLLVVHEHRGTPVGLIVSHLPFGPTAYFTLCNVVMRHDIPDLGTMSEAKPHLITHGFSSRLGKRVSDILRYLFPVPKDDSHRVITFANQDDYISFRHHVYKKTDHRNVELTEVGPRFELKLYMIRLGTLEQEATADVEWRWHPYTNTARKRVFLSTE
UniProt Q8IY31, whole entry, looked up: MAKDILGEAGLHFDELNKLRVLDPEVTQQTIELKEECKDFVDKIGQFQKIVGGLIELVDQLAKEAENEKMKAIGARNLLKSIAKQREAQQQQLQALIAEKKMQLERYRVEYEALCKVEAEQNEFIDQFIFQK
UniProt Q86VI3: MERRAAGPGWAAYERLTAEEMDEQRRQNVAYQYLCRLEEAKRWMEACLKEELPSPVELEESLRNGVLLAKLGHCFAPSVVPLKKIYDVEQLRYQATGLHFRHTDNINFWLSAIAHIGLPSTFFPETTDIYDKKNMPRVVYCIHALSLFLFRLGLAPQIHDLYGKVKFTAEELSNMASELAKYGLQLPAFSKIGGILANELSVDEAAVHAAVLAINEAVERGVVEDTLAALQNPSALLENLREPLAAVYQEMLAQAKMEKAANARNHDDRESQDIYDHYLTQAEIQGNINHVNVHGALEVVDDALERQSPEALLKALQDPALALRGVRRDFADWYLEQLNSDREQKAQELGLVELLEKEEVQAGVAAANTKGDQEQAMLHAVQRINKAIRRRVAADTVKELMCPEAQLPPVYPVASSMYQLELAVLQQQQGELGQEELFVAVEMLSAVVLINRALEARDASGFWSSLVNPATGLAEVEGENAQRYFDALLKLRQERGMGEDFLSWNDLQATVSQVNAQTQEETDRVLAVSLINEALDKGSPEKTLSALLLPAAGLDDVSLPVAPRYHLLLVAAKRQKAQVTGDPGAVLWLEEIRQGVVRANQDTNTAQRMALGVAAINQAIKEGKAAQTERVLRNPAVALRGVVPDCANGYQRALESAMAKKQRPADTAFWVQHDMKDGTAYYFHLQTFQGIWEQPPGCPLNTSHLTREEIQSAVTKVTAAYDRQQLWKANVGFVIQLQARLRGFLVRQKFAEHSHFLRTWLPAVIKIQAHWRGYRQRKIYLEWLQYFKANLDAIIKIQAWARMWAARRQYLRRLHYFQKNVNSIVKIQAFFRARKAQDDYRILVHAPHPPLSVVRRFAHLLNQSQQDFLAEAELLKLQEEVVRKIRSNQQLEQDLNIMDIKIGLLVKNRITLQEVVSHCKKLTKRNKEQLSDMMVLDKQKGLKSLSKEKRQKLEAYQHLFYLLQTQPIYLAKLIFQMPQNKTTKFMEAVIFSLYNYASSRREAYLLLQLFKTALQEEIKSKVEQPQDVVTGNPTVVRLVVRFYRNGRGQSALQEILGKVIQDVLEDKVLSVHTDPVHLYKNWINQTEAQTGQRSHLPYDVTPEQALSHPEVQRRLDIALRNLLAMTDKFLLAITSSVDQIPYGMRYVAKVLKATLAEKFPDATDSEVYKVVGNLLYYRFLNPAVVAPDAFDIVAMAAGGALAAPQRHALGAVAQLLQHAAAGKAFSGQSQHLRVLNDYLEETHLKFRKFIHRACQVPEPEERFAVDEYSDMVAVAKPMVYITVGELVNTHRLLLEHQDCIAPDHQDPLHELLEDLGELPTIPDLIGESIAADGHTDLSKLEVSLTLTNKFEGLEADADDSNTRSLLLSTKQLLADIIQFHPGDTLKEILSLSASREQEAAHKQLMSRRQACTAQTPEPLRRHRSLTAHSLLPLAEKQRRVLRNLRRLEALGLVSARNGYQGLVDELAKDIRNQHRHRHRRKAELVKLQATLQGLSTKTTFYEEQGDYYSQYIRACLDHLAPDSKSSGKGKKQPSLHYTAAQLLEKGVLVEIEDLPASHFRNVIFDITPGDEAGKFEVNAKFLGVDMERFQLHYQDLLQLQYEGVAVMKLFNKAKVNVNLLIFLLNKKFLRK
UniProt P01344, whole entry, looked up: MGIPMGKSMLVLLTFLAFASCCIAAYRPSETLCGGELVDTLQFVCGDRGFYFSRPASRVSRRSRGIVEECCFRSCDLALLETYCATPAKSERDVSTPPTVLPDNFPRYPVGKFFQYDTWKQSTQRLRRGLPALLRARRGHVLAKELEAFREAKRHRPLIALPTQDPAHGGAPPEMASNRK
UniProt Q96F46, whole entry, looked up: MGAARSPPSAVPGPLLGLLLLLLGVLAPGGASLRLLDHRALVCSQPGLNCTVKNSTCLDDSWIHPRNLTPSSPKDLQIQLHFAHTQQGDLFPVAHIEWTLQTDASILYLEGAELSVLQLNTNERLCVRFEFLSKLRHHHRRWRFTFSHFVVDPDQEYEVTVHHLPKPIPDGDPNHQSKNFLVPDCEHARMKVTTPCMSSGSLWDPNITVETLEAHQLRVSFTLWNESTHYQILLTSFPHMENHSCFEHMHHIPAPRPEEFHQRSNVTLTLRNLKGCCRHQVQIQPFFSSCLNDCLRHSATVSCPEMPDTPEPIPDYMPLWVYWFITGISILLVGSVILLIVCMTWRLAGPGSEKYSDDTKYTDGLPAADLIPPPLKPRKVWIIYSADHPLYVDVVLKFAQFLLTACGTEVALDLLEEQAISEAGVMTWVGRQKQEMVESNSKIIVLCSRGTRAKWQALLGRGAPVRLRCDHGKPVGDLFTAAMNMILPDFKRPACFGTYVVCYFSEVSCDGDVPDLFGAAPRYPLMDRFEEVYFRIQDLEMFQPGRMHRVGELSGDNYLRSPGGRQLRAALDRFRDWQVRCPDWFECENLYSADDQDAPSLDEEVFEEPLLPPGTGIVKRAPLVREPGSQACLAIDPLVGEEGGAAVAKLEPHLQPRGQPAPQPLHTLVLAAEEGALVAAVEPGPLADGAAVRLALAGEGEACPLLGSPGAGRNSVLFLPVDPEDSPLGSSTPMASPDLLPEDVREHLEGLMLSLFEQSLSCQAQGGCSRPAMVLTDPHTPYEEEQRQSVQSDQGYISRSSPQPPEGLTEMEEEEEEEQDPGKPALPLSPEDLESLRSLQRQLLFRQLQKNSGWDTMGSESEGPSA
UniProt Q8NFU5: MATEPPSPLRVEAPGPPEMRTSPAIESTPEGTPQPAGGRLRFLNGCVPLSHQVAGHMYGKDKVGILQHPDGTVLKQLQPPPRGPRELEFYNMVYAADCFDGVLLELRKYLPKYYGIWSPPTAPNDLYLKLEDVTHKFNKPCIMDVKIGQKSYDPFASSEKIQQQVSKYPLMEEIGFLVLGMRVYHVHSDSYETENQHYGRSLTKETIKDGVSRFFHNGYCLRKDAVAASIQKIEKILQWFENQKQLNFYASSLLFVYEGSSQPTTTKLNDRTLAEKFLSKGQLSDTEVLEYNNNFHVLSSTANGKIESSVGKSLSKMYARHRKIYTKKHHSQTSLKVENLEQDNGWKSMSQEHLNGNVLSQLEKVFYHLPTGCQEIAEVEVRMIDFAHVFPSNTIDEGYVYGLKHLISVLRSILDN

Columns and labels:
Assay in all cases: log2 fold change, soluble protein after heating vs DMSO (PISA); higher = thermal stabilisation; K562 cells, 10 uM, 30 min; active = over 0.2 and 3.5 SD of the protein, either way, in both replicates (recomputed)
bafetinib = compound: Cc1ccc(NC(=O)c2ccc(CN3CC[C@H](N(C)C)C3)c(C(F)(F)F)c2)cc1Nc1nccc(-c2cncnc2)n1 [bafetinib]
How it was run: (§1)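 Values are thermal stability changes relative to control samples and are taken from duplicates. They are stated as log2 fold changes. Before quantification by TMTpro 16plex LC-MS/MS with equalised channel sums, K562 cells at 2×10^6 cells/mL were treated with 10 μM compound for 30 min, heated in aliquots for 3 min across 48°C-58°C, pooled, extracted in PBS with 0.5% NP-40 at 4°C, and centrifuged at 21,000xg for 90 min to give the soluble supernatant.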

[1] = compound: Cc1cccc(CC(=O)N2CCc3c2ccc(-c2cn(C)c4ncnc(N)c24)c3F)n1
How it was run: as §1

dasatinib = compound: Cc1nc(Nc2ncc(C(=O)Nc3c(C)cccc3Cl)s2)cc(N2CCN(CCO)CC2)n1 [dasatinib]
How it was run: as §1

[2] = compound: Cn1cc(-c2ccc3c(c2)CCN3C(=O)Cc2cccc(C(F)(F)F)c2)c2c(N)ncnc21
How it was run: as §1

[3] = compound: Cn1cc(-c2ccc3nnc(C(F)(F)c4ccc5ncccc5c4)n3n2)cn1
How it was run: as §1

tipifarnib = compound: Cn1cncc1[C@@](N)(c1ccc(Cl)cc1)c1ccc2c(c1)c(-c1cccc(Cl)c1)cc(=O)n2C [tipifarnib]
How it was run: as §1

[4] = compound: NC(=O)c1cnc(N[C@@H]2CCCC[C@@H]2N)nc1Nc1cccc(-n2nccn2)c1
How it was run: as §1

[5] = compound: NCC(=O)Nc1ccc(-n2nc(C(F)(F)F)cc2-c2ccc3c(ccc4ccccc43)c2)cc1
How it was run: as §1

vorinostat = compound: O=C(CCCCCCC(=O)Nc1ccccc1)NO [vorinostat]
How it was run: as §1

citarinostat = compound: O=C(CCCCCCNC(=O)c1cnc(N(c2ccccc2)c2ccccc2Cl)nc1)NO [citarinostat]
How it was run: as §1

[6] = compound: O=C1NC(=O)C(c2cnc3ccccn23)=C1c1cn2c3c(cc(F)cc13)CN(C(=O)N1CCCCC1)CC2
How it was run: as §1

[7] = compound: c1cc(OCCN2CCCCC2)cc(-c2n[nH]c3ccc(-c4nnc[nH]4)cc23)c1
How it was run: as §1

mubritinib = compound: FC(F)(F)c1ccc(/C=C/c2nc(COc3ccc(CCCCn4ccnn4)cc3)co2)cc1 [mubritinib]
How it was run: as §1

[8] = compound: NC1(c2ccc(-c3nc4ccn5c(=O)[nH]nc5c4cc3-c3ccccc3)cc2)CCC1
How it was run: as §1

silmitasertib = compound: O=C(O)c1ccc2c(c1)nc(Nc1cccc(Cl)c1)c1ccncc12 [silmitasertib]
How it was run: as §1

nilotinib = compound: Cc1cn(-c2cc(NC(=O)c3ccc(C)c(Nc4nccc(-c5cccnc5)n4)c3)cc(C(F)(F)F)c2)cn1 [nilotinib]
How it was run: as §1

[9] = compound: Cc1nc(Nc2n[nH]c3c2CN(C(=O)N[C@H](CN(C)C)c2ccccc2)C3(C)C)c2sccc2n1
How it was run: as §1

[10] = compound: Cc1ncc(-c2ccnc(Nc3ccc(S(C)(=O)=O)cc3)n2)n1C(C)C
How it was run: as §1

[11] = compound: NC(=O)Nc1cc(-c2cccc(F)c2)sc1C(=O)N[C@H]1CCCNC1
How it was run: as §1

entinostat = compound: Nc1ccccc1NC(=O)c1ccc(CNC(=O)OCc2cccnc2)cc1 [entinostat]
How it was run: as §1

Measured: log2 fold change

IL1RAP isoform 5 (UniProt Q9NPH3)
inactive: bafetinib 0.322 | [1] -0.178 | dasatinib -0.083 | [2] -0.194 | [3] 0.138 | tipifarnib -0.151 | [4] -0.308 | [5] -0.388 | vorinostat 0.271 | citarinostat -0.012 | [6] -0.006 | [7] -0.054

INO80E (UniProt Q8NBZ0)
inactive: bafetinib 0.119 | [1] -0.046 | [3] 0.018 | tipifarnib 0.071 | mubritinib -0.083 | [4] 0.058 | [8] -0.032 | vorinostat 0.049 | citarinostat -0.114 | silmitasertib 0.033 | [7] -0.002

IL23R (UniProt Q5VWK5)
inactive: bafetinib 0.316 | dasatinib 0.168 | [2] -0.163 | [4] -0.31 | [5] -0.372

ITGB1BP1 (UniProt O14713)
inactive: bafetinib 0.064 | dasatinib 0.107 | [3] 0.017 | [6] -0.028

INF2 (UniProt Q27J81)
inactive: bafetinib -0.125 | nilotinib -0.062 | [9] -0.149 | dasatinib 0.036 | [10] 0.006 | [2] -0.057 | [3] 0.031 | mubritinib 0.062 | [11] 0.054 | [4] 0.025 | [8] -0.05 | entinostat 0.085 | silmitasertib 0.029 | [6] 0.233

IGHG1 (UniProt P01857)
inactive: bafetinib 0.251 | nilotinib 0 | [9] 0.015 | dasatinib 0.06 | [10] 0.211 | mubritinib -0.246 | [11] 1.02 | [8] 0.216 | [5] 0.317 | entinostat 0.18 | citarinostat -0.052 | silmitasertib -0.002 | [7] 0.273

ITM2B (UniProt Q9Y287)
active: silmitasertib 0.38
inactive: bafetinib -0.112 | nilotinib 0.006 | [9] -0.062 | dasatinib 0.006 | [10] 0.033 | [2] 0.035 | [3] -0.04 | tipifarnib 0.006 | mubritinib 0.059 | [11] -0.036 | [4] 0.091 | [8] -0.144 | [5] 0.021 | entinostat -0.083 | citarinostat -0.006 | [6] 0.109 | [7] -0.178

ITFG2 (UniProt Q969R8)
inactive: bafetinib -0.097 | nilotinib -0.02 | [9] 0.025 | dasatinib 0.047 | [10] -0.084 | [2] -0.046 | [3] 0.03 | tipifarnib -0.131 | mubritinib 0.013 | [11] 0.005 | [4] -0.141 | [8] -0.163 | [5] -0.047 | entinostat 0.038 | silmitasertib 0.073 | [6] -0.137

IMPA2 (UniProt O14732)
inactive: bafetinib -0.113 | [1] 0.067 | dasatinib -0.112 | [2] 0.189 | [3] -0.081 | tipifarnib -0.077 | mubritinib 0.017 | [11] 0.115 | [4] 0.111 | [8] 0.016 | [5] -0.028 | entinostat 0.067 | vorinostat 0.048 | citarinostat -0.173 | silmitasertib -0.034 | [7] 0.793

IDH3A isoform 2 (UniProt P50213)
inactive: bafetinib 0.004 | nilotinib 0 | [9] 0.001 | [10] -0.057 | [2] 0.128 | [4] -0.06

IGLL5 (UniProt B9A064)
inactive: bafetinib 0.307 | [1] -0.026 | nilotinib -0.043 | [9] -0.201 | [10] -0.114 | tipifarnib -0.014 | mubritinib -0.412 | [11] 0.887 | [8] 0.156 | entinostat -0.055 | vorinostat 0.065 | citarinostat -0.032 | silmitasertib 0.397 | [7] 0.401

ITPR1 (UniProt Q14643)
inactive: bafetinib 0.317 | [2] -0.319 | [3] 0.01 | [6] 0

ITGA2B (UniProt P08514)
inactive: [1] 0.256 | nilotinib -0.04 | [9] -0.013 | dasatinib 0.012 | [10] -0.151 | [2] -0.122 | [3] -0.051 | tipifarnib 0.073 | [11] 0.085 | [4] -0.222 | [5] -0.009 | entinostat -0.009 | [6] 0.02
active: vorinostat -0.495

Reprinted from the listing (2 entries):
ITM2B (UniProt Q9Y287)
active: silmitasertib 0.38
inactive: bafetinib -0.112 | nilotinib 0.006 | [9] -0.062 | dasatinib 0.006 | [10] 0.033 | [2] 0.035 | [3] -0.04 | tipifarnib 0.006 | mubritinib 0.059 | [11] -0.036 | [4] 0.091 | [8] -0.144 | [5] 0.021 | entinostat -0.083 | citarinostat -0.006 | [6] 0.109 | [7] -0.178

ITFG2 (UniProt Q969R8)
inactive: bafetinib -0.097 | nilotinib -0.02 | [9] 0.025 | dasatinib 0.047 | [10] -0.084 | [2] -0.046 | [3] 0.03 | tipifarnib -0.131 | mubritinib 0.013 | [11] 0.005 | [4] -0.141 | [8] -0.163 | [5] -0.047 | entinostat 0.038 | silmitasertib 0.073 | [6] -0.137

Carrying on.

IMP4 (UniProt Q96G21)
inactive: [1] 0.028 | dasatinib -0.415 | [3] 0.047 | [11] 0.12 | [4] 0.007 | entinostat -0.175 | vorinostat -0.039

IGLC3 (UniProt P0DOY3)
inactive: nilotinib 0.328 | [9] 0.054 | [10] 0.346 | mubritinib -0.165 | [8] 0.001 | citarinostat 0.126 | silmitasertib 0.602 | [7] 0.191

ITPR3 (UniProt Q14573)
inactive: [2] -0.35 | [5] -0.142 | citarinostat 0.068 | [7] 0.055

IFT20 isoform 2 (UniProt Q8IY31)
inactive: nilotinib -0.016 | [9] -0.017 | [10] -0.007 | [3] 0.368 | mubritinib 0.309 | [11] -0.022 | [8] -0.072 | entinostat 0.019 | citarinostat 0.019 | silmitasertib 0.028 | [7] 0.077

IQGAP3 (UniProt Q86VI3)
inactive: [3] -0.012

IFT27 (UniProt Q9BW83)
inactive: [1] -0.025 | dasatinib 0.136 | [2] 0.015 | tipifarnib 0.087 | [4] -0.037 | vorinostat -0.222

IKZF1 (UniProt R9R4D9)
inactive: [1] -0.164 | dasatinib -0.17 | [2] -0.044 | tipifarnib -0.119 | vorinostat -0.181

IGFBP5 (UniProt P24593)
inactive: mubritinib -0.024 | [11] 0.19 | [8] -0.33 | [5] -0.172 | entinostat 0.078 | silmitasertib 0.055 | [6] -0.078

ISL2 (UniProt H0YN25)
inactive: dasatinib 0.071

IDUA (UniProt P35475)
inactive: [1] 0.04 | tipifarnib 0.121 | mubritinib -0.13 | [8] -0.031 | vorinostat -0.103 | silmitasertib -0.002 | [6] -0.135

ITPRID2 (UniProt P28290)
inactive: [3] -0.032 | tipifarnib -0.056 | [5] -0.059 | citarinostat -0.029 | [6] -0.208 | [7] 0.211

IGF2 isoform 3 (UniProt P01344)
inactive: dasatinib 0.019 | [5] -0.004

IL17RA (UniProt Q96F46)
inactive: mubritinib 0.134 | [11] 0.044 | [4] 0.005 | [8] -0.063 | entinostat -0.154 | silmitasertib 0.09

INCENP (UniProt Q9NQS7)
inactive: [3] -0.268

IGHA2 (UniProt P01877)
inactive: nilotinib -0.282 | [9] -0.07 | [10] 0.58

ING5 (UniProt Q8WYH8)
inactive: [2] 0.164 | tipifarnib 0.045 | mubritinib 0.206 | [8] -0.042 | citarinostat 0.115 | silmitasertib -0.013 | [7] -0.008

INTS1 (UniProt Q8N201)
inactive: [1] -0.09 | nilotinib -0.057 | [9] 0.508 | dasatinib -0.128 | [10] 0.049 | [3] -0.239 | mubritinib -0.044 | [11] 0.065 | [8] 0.044 | entinostat -0.364 | vorinostat -0.065 | citarinostat -0.179 | silmitasertib -0.091 | [6] -0.168 | [7] -0.343

IDS (UniProt P22304)
inactive: [1] -0.136 | [3] 0.207 | tipifarnib 0.048 | vorinostat -0.048

IGSF1 isoform 4 (UniProt Q8N6C5)
inactive: tipifarnib 0.157 | mubritinib 0.049 | [4] 0.04 | [8] -0.07 | citarinostat 0.059 | silmitasertib 0.123 | [7] -0.331

IPMK (UniProt Q8NFU5)
inactive: nilotinib 0.055 | [9] -0.009 | [10] 0.157

INTS2 (UniProt Q9H0H0)
inactive: [1] 0.095 | [2] -0.124 | [3] -0.047 | tipifarnib 0.093 | mubritinib 0.061 | [11] 0.084 | [4] -0.079 | [8] -0.076 | [5] 0.126 | entinostat 0.081 | vorinostat -0.009 | citarinostat 0.004 | silmitasertib -0.028 | [6] 0.003 | [7] 0.205
